# Laboratory results from patent US8815811B2 (Eli Lilly and Company, priority 2010, dated 2014).
# What was measured:
# peptide synthesis = settings: conjugation step
# [1] = general procedure: Fmoc solid-phase peptide synthesis; Fmoc-Rink amide polystyrene resin (Rapp Polymere), approximately 0.7 mmol/g; DIC/HOBt; PyBOP/DIEA for 1-Nal at position 22 and Ile at position 12; settings: conjugation step, based on the amount of starting peptide
Substance,conjugation yield (peptide synthesis),conjugation yield [1]
Tyr-Aib-Glu-Gly-Thr-Phe-Thr-Ser-Asp-Tyr-Ser-Ile-Aib-Leu-Asp-Lys-Ile-Ala-Gln-Arg-Ala-Nal-Val-Gln-Trp-Leu-Ile-Ala-Aib-Lys-Gly-Lys-Lys-Gln-Glu-Trp-Lys-His-Gln-Ile-Thr-Gln-Cys(PEG20K)-Cys(PEG20K),typically in the range of 70%,–
Y[Aib]EGTFTSDYSI[Aib]LDKIAQRAFVQWLIA[Aib]KGKKQEWKHQITQ,–,typically in the range of 70%

# Where no end group is shown, it is not given here. [ ]: non-standard residue; d: D form. Aib = CC(C)(N)C(=O)O
